# Experimental data published in PubChem BioAssay AID540303 (National Center for Advancing Translational Sciences (NCATS), 2011).
# The campaign covered roughly 330,000 compounds. About 1,000 (0.3%) were called active. The inconclusive results got no clear call from the source; some entries with a clear call stand among them for comparison. Calls follow the shape of the dose curve; as a rule, active = well fitted inhibition curve with a large enough effect; inconclusive = small, poorly fitted or top-dose-only effect; inactive = no such curve, though single readings can be large or run the other way; tested in mouse RAW 264.7 cells. Potencies beside an inconclusive call are fits to weak or partial responses and may not hold up.
# Test: qHTS for Inhibitors of Cell Surface uPA Generation; also: nearly all actives have a fitted effect of over 55% in size
# Conditions: cell surface uPA generation assay; series mostly up to 38.3 µM; activity change, negative = inhibition: at the top concentration
# Method in brief: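 Validation set in qHTS format. RAW 264.7 cells were pre-plated overnight and then exposed to compounds (up to 38.3 uM final) for 24 h at 37 C in 5% CO2, followed by a luminescent ATP-Lite measurement.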
# % is scaled to controls: 0 for no effect and ±100 for the full control effect; potency is read from the fitted curve at half-maximal effect.
Structure (SMILES),Potency,"activity change, negative = inhibition"
COc1ccc(/[N+]([O-])=C/c2ccoc2)cc1,"inconclusive: 12.6 µM [inhibitor, partial curve, poor fit]",–
COc1ccc(NC(=O)NNC(=O)COc2ccc3ccccc3c2)cc1,–,inactive: 0.0457%
Cc1ccc(S(=O)(=O)Nc2cccc(-c3ccc(N4CCCCCC4)nn3)c2)cc1C,"inconclusive: 7.08 µM [inhibitor, single point]",–
CCOc1ccc(OCc2cccc(C(=O)N3CCOCC3)c2)cc1,"inconclusive: 11.2 µM [inhibitor, partial curve, poor fit]",–
C=CCNc1nc(-c2ccc3c(c2)OCCO3)cs1,"inconclusive: 5.62 µM [inhibitor, full curve, poor fit]",–
Cc1csc(=O)n1CCC(=O)OC(C)C(=O)Nc1ccc(N2CCOCC2)cc1 (centres undefined),"inconclusive: 2 µM [inhibitor, full curve, poor fit]",–
CCCCc1cc(=O)oc2cc(OCC(=O)Nc3ccccn3)ccc12,"inconclusive: 11.2 µM [inhibitor, partial curve, poor fit]",–
COc1ccc(C2=NN(S(=O)(=O)c3ccccc3)C(c3ccccc3)C2)cc1 (centres undefined),–,inactive: -9.21%
C=CCn1c(SCC(=O)NC2CC2)nc2sc(CC)cc2c1=O,"inconclusive: 12.6 µM [inhibitor, partial curve, poor fit]",–
COc1ccc(N2CCN(c3ccc(N4C(=O)CC(C)C4=O)cc3[N+](=O)[O-])CC2)cc1 (centres undefined),"inconclusive: 12.6 µM [inhibitor, single point]",–
Cn1c(=NC(=O)COc2ccccc2)sc2cccc(F)c21,–,inactive: -6.83%
COC(=O)NC(NC(=S)Nc1ccc([N+](=O)[O-])cc1)C(Cl)(Cl)Cl (centres undefined),–,inactive: 5.16%
CC(=O)Nc1ccc(S(=O)(=O)Nc2ccc(N3CCCCC3)cc2)cc1,"inconclusive: 7.08 µM [inhibitor, partial curve]",–
CCOc1ccc2c(c1)c(N=Nc1cccc(C(=O)O)c1)c(O)n2C,–,inactive: -3.17%
c1ccc(Cn2c(CN3CCCC3)nc3ccccc32)cc1,–,inactive: 0.788%
C/C(=N\NC(=O)c1ccco1)c1cc(Cl)sc1Cl,"inconclusive: 7.08 µM [inhibitor, partial curve, poor fit]",–
Cn1c(CCc2ccc(N)cc2)nc2ccccc21,"inconclusive: 8.91 µM [inhibitor, partial curve, poor fit]",–
C=CCNC(=O)c1ccc2c3n(nc2c1)-c1ccccc1CO3,active: 1.41 µM,–
Cc1cc(Cn2nc(-c3ccccc3)cc2C(=O)NCc2cccc(C(F)(F)F)c2)on1,"inconclusive: 10 µM [inhibitor, partial curve]",–
CC(OC(=O)/C=C/c1cccs1)C(=O)Nc1ccc(C(N)=O)cc1 (centres undefined),"inconclusive: 28.2 µM [inhibitor, single point]",–
Cc1cccn2c(=O)c3cc(C(=O)NC4CCS(=O)(=O)C4)n(Cc4ccccc4)c3nc12 (centres undefined),–,inactive: 3.94%
COc1ccccc1C(=O)Nc1ccc(Cc2ccncc2)cc1,–,inactive: -0.695%

Structure (SMILES),Potency,"activity change, negative = inhibition"
O=C(CN1C(=O)c2ccccc2S1(=O)=O)c1ccc(F)cc1,"inconclusive: 6.31 µM [inhibitor, single point]",–
Cn1c(NC(=O)c2ccc(F)cc2)nc2ccccc21,"inconclusive: 12.6 µM [inhibitor, single point]",–
Cn1c(=O)c([N+](=O)[O-])c(NCCc2ccccc2)c2ccccc21,–,inactive: -3.01%
CCOc1ccccc1CNC(=O)Cn1ccc2cc(S(=O)(=O)N3CCCCCC3)ccc21,"inconclusive: 0.141 µM [inhibitor, full curve, poor fit]",–
CCCN1CCC(=O)N(CCSc2ccc(OC)cc2)CC1,"inconclusive: 2.82 µM [inhibitor, full curve, poor fit]",–
CC1Oc2cc3oc4c(O)c(O)ccc4c(=O)c3c(O)c2C1(C)C (centres undefined),"inconclusive: 8.91 µM [inhibitor, partial curve, poor fit]",–
CCC(=O)NC(c1ccc(OC)cc1)c1c(O)ccc2ccccc12 (centres undefined),active: 5.62 µM,–
O=C(CCN1C(=O)/C(=C/c2ccccc2Cl)SC1=S)NCCCN1CCOCC1,"inconclusive: 10 µM [inhibitor, single point]",–
Cc1ccccc1C(OCC(O)CN1CCN(CCO)CC1)c1ccccc1 (centres undefined),–,inactive: -3.17%
Cc1ccc(-c2nn(CCC(=O)O)cc2/C=C\C(=O)c2ccc(Br)cc2)cc1,active: 6.31 µM,–
O=C(Nc1ccccc1)c1cn(CCBr)cn1,"inconclusive: 6.31 µM [inhibitor, partial curve, poor fit]",–
O=C(/C=C/c1ccc2ccccc2n1)N1CCN(S(=O)(=O)c2ccccc2F)CC1,"inconclusive: 10 µM [inhibitor, partial curve, poor fit]",–
Cc1cccc(Nc2nc(C)nc3c2oc2ccccc23)c1,"inconclusive: 12.6 µM [inhibitor, single point]",–
CN(C)CCc1cc2c(c3c1ccc1ccccc13)OCO2,"inconclusive: 6.31 µM [inhibitor, partial curve, poor fit]",–
O=C(NCc1ccco1)C1CC(c2c(Cl)cccc2Cl)=NO1 (centres undefined),"inconclusive: 7.94 µM [inhibitor, single point]",–
CN(C(=O)c1ccc2c(c1)CCN2S(C)(=O)=O)c1ccccc1,–,inactive: -3.06%
C=CC[C@@H](CC(=O)N[C@H](CO)Cc1ccccc1)C(=O)N[C@H](COC(=O)[C@@H](CC=C)Cc1ccc(F)cc1)Cc1c[nH]c2ccccc12,"inconclusive: 10 µM [inhibitor, single point]",–
Cc1cc(Br)ccc1OCCCCNC(C)(C)C,–,inactive: 1.91%
CS(=O)(=O)c1nc(S(=O)(=O)c2ccc(Cl)cc2)c(N2CCC(O)CC2)s1,"inconclusive: 6.31 µM [inhibitor, partial curve, poor fit]",–
Cc1ccc(NC(=O)CN2C(=O)C3C4C=CC(C4)C3C2=O)cc1S(=O)(=O)N(C)C (centres undefined),–,inactive: -3.18%
CCC(C)c1ccc(NC(=O)c2ccco2)cc1 (centres undefined),"inconclusive: 8.91 µM [inhibitor, partial curve, poor fit]",–
COc1ccc(NC(=O)COC(=O)c2cccc(S(=O)(=O)N3CCCCC3)c2)c(OC)c1,"inconclusive: 10 µM [inhibitor, single point]",–

# Record cards, from the list above:
# `O=C(CCN1C(=O)/C(=C/c2ccccc2Cl)SC1=S)NCCCN1CCOCC1` is entered as Potency: inconclusive: 10 µM [inhibitor, single point]
# `CS(=O)(=O)c1nc(S(=O)(=O)c2ccc(Cl)cc2)c(N2CCC(O)CC2)s1` is entered as Potency: inconclusive: 6.31 µM [inhibitor, partial curve, poor fit]
